Some of the results follow.
Assays:
Experiment in all cases: log2 fold change, soluble protein after heating vs DMSO (PISA); higher = thermal stabilisation; K562 lysate, 10 uM; active = over 0.2 and 3.5 SD of the protein, either way, in both replicates (recomputed)
alvocidib = compound: CN1CC[C@H](c2c(O)cc(O)c3c(=O)cc(-c4ccccc4Cl)oc23)[C@H](O)C1 [alvocidib]
Summary of the method: (§1)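 Log-two fold change in thermal stability relative to solvent controls is reported from duplicates. For each sample, crude K562 extract from dounce-homogenised pellets in PBS pH 7.4 with 1 mM MgCl2, at 1 mg/mL protein, was treated with 10 μM compound for 30 min. Aliquots heated for 3 min across 48°C-58°C were pooled, brought to 0.5% NP-40 at 4°C and cleared at 21,000xg for 90 min. The supernatant was quantified by TMTpro 16plex LC-MS/MS with channel sums equalised.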

Sequences of proteins named here, by UniProt entry; tags and fusion partners are left off. A change or cut given only in a name is not applied to a line headed by its entry.
UniProt Q9H1B7, whole entry, looked up: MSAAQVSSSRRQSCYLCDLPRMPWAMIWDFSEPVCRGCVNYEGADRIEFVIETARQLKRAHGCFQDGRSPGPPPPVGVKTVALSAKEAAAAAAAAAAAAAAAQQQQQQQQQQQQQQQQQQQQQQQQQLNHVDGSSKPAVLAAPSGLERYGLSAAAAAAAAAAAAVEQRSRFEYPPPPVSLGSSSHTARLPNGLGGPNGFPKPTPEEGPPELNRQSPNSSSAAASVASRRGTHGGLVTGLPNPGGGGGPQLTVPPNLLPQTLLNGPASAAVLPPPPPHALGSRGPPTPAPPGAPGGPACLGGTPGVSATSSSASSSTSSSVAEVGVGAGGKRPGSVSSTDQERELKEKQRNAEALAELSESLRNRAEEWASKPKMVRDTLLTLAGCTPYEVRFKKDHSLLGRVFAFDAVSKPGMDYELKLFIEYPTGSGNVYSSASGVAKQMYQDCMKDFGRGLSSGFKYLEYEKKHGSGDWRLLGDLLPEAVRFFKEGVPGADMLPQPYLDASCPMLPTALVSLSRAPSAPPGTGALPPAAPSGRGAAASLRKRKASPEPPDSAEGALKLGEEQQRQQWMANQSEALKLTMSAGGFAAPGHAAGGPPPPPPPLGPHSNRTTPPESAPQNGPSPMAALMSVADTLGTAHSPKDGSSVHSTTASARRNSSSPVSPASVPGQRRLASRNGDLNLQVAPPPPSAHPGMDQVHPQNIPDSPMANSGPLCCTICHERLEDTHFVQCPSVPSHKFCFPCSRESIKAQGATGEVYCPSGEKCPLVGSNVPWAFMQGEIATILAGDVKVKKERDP
UniProt Q96CN7: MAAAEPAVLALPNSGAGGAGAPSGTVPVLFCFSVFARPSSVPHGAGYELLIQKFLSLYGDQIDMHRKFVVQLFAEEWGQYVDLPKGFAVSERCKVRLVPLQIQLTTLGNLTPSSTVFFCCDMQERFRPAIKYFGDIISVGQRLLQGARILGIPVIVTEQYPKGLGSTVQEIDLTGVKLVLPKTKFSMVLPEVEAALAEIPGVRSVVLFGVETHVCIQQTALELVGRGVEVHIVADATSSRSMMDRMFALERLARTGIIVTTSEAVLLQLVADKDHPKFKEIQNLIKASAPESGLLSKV
UniProt Q9NXV2: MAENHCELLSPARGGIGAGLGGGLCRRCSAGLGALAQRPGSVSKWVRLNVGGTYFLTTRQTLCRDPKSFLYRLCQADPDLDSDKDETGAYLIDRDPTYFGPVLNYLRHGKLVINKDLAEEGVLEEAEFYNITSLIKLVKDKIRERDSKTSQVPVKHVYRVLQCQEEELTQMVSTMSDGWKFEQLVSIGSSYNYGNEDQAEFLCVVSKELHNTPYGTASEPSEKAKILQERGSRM
UniProt P17535: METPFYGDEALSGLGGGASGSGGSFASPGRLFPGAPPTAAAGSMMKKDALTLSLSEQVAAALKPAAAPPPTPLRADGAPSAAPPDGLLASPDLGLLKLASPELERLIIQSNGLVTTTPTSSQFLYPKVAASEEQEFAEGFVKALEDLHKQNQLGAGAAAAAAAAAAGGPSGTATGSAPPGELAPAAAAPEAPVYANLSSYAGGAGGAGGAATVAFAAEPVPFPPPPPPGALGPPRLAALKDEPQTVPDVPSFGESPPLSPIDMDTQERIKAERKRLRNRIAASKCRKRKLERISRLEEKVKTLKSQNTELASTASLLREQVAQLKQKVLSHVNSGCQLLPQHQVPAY
UniProt Q8TEX9: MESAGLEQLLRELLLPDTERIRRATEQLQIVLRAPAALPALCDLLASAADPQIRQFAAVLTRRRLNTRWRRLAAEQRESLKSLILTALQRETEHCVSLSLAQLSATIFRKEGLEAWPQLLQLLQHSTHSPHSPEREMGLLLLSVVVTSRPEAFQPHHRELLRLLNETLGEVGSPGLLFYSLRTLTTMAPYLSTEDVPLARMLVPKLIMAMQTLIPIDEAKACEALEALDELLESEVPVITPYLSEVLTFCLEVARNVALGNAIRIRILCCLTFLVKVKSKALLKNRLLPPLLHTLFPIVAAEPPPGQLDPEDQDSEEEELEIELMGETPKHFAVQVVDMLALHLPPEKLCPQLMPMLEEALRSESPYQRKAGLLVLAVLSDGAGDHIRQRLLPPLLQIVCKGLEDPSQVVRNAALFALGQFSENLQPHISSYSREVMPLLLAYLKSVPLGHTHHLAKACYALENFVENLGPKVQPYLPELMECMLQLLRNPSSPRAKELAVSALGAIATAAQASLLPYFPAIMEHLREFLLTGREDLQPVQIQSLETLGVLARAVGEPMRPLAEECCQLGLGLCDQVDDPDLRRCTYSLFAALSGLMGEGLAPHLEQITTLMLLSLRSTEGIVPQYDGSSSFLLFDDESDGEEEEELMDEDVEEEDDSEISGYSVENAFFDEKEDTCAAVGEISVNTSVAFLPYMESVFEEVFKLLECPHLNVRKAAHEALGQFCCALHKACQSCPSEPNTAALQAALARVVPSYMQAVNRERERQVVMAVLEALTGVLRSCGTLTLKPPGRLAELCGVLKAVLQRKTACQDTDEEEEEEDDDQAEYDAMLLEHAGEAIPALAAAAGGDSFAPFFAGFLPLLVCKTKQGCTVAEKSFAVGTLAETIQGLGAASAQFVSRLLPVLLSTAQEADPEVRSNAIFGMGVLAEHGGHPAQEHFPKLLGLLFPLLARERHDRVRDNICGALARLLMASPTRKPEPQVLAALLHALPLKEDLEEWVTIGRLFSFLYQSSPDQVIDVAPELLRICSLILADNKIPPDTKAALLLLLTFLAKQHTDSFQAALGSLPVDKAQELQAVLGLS
UniProt Q9H910: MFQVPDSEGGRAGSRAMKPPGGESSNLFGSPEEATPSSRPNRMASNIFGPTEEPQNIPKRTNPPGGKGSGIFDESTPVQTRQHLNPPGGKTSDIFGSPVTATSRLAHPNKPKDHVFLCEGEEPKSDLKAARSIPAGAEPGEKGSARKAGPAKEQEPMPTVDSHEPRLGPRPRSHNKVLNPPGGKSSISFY
UniProt Q13352: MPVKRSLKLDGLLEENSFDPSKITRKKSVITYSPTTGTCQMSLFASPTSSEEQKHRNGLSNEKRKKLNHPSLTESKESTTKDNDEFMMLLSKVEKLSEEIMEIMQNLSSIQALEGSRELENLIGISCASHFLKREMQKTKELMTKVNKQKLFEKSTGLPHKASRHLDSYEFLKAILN
UniProt Q9NPH2: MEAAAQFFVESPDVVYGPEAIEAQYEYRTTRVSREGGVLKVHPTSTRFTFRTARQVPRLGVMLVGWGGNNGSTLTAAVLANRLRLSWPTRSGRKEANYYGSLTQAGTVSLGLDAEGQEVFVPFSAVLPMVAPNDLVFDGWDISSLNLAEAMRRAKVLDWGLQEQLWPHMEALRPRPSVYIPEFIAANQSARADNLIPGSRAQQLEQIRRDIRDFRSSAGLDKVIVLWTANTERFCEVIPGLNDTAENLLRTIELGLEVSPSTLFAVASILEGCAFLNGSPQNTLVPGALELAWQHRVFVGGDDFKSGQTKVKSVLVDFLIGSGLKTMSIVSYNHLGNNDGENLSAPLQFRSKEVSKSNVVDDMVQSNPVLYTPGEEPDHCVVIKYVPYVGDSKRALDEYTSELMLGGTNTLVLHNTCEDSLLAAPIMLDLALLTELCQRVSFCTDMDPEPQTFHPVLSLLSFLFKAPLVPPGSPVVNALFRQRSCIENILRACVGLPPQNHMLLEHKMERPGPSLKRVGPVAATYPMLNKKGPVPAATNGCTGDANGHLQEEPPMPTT
UniProt Q96SY0, whole entry, looked up: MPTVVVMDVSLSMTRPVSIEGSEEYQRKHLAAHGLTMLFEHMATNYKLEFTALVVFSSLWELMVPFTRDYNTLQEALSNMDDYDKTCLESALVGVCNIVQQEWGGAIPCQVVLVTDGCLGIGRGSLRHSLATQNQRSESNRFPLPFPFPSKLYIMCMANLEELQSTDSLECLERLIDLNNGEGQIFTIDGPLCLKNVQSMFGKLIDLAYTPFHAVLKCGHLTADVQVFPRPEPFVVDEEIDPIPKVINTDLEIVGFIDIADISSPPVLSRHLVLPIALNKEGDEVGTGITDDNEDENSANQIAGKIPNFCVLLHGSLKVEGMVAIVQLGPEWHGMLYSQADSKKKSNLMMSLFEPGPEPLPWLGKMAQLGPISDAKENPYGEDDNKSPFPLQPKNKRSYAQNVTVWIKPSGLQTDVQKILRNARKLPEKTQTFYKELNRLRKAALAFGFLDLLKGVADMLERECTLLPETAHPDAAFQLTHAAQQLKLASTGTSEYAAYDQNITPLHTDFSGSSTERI
UniProt Q7L273: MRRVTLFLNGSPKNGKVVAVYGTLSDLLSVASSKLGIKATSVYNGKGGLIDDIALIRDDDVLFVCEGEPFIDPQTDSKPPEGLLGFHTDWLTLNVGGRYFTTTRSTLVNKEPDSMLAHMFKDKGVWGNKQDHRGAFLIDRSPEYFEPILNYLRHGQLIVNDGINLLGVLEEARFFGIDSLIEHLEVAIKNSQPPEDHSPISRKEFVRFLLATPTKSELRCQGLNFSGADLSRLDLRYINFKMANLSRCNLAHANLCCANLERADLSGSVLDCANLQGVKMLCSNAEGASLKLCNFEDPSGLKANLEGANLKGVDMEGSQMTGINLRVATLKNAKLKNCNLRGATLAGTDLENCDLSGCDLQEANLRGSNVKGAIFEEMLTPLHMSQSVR
UniProt P53990, whole entry, looked up: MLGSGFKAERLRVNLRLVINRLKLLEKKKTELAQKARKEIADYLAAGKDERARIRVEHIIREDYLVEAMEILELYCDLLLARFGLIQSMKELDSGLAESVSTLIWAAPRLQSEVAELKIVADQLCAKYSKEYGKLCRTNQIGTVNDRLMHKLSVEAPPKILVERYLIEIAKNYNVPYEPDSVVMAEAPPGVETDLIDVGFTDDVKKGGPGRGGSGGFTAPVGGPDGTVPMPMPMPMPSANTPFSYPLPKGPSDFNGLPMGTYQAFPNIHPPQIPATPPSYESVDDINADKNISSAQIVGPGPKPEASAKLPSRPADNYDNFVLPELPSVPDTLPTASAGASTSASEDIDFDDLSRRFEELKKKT
UniProt Q9BVA0, whole entry, looked up: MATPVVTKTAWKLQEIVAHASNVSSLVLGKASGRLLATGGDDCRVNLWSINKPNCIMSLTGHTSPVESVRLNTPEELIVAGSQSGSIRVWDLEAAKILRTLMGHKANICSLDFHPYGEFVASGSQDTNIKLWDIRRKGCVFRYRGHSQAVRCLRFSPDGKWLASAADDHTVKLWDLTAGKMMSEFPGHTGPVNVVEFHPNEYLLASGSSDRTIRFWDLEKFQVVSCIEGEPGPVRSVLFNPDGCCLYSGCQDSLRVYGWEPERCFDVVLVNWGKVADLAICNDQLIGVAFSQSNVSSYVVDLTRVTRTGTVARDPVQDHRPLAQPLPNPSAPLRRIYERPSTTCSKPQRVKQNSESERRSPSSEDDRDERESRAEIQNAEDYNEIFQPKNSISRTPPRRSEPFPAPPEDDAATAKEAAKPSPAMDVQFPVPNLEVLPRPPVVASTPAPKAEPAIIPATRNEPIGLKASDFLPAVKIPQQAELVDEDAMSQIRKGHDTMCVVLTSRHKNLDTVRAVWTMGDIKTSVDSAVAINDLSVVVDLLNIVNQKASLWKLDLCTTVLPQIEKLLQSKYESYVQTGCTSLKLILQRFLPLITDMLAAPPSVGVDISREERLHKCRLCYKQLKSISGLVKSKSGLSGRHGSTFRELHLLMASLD
UniProt Q9UI26: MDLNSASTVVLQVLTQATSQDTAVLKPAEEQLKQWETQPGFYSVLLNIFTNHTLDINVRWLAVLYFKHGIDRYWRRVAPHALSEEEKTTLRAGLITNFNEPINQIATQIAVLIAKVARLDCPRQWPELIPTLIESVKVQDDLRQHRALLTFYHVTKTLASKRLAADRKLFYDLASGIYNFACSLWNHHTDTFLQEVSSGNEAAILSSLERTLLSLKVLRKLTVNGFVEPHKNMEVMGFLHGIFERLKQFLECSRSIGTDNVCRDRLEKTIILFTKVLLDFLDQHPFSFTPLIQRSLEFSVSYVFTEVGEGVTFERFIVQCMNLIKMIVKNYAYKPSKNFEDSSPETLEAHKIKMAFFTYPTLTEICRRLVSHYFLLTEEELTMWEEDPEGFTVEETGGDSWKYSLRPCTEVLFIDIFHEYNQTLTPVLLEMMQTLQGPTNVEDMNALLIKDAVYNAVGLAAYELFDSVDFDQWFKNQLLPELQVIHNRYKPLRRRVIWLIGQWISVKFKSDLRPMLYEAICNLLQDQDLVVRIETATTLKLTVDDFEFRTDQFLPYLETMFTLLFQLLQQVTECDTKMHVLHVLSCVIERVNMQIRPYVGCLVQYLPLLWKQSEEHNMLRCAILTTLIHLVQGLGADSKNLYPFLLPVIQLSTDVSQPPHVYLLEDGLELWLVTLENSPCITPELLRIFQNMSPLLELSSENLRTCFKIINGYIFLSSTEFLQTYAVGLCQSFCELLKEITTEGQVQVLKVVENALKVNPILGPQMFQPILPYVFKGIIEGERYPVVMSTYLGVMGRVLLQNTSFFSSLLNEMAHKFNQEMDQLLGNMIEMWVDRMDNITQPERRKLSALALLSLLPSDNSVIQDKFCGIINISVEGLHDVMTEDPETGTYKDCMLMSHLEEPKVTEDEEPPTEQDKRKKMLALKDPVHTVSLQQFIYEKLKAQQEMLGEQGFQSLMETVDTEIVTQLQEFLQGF

Tubastatin A = compound: CN1CCc2c(c3ccccc3n2Cc2ccc(C(=O)NO)cc2)C1 [Tubastatin A]
Summary of the method: as §1

[1] = compound: CNC(=O)C1=CC=CC=C1NC2=NC(=NC=C2Cl)NC3=C(C=C(C=C3)N4CCOCC4)OC
Summary of the method: as §1

defactinib = compound: CNC(=O)c1ccc(Nc2ncc(C(F)(F)F)c(NCc3nccnc3N(C)S(C)(=O)=O)n2)cc1 [defactinib]
Summary of the method: as §1

[2] = compound: CNc1nc(-c2ccc3c(N)n[nH]c3c2)cc(N2C[C@@H](C(=O)NC3CCCCC3)CC[C@H]2C)n1
Summary of the method: as §1

encorafenib = compound: COC(=O)N[C@@H](C)CNc1nccc(-c2cn(C(C)C)nc2-c2cc(Cl)cc(NS(C)(=O)=O)c2F)n1 [encorafenib]
Summary of the method: as §1

[3] = compound: COC(=O)[C@H](CCSC)NC(=O)C1=C(C=C(C=C1)NC[C@H](CS)N)C2=CC=CC=C2
Summary of the method: as §1

alisertib = compound: COc1cc(Nc2ncc3c(n2)-c2ccc(Cl)cc2C(c2c(F)cccc2OC)=NC3)ccc1C(=O)O [alisertib]
Summary of the method: as §1

[4] = compound: COc1cc2nc(-c3cc(F)ccc3O)nc(N[C@@H]3CNC[C@H]3C(C)(C)O)c2cc1OC
Summary of the method: as §1

gefitinib = compound: COc1cc2ncnc(Nc3ccc(F)c(Cl)c3)c2cc1OCCCN1CCOCC1 [gefitinib]
Summary of the method: as §1

Measured: log2 fold change

ITM2A (UniProt O43736)
inactive: alvocidib 0.033 | Tubastatin A 0.084 | [1] 0.005 | defactinib 0.017 | [2] -0.052 | encorafenib -0.013 | [3] -0.01 | alisertib 0.131 | [4] -0.004 | gefitinib 0

IRF2BPL (UniProt Q9H1B7)
inactive: alvocidib -0.076 | Tubastatin A -0.047 | [1] 0.01 | defactinib -0.007 | [2] 0.048 | encorafenib -0.017 | [3] -0.06 | alisertib -0.031 | [4] -0.013 | gefitinib -0.05

KBTBD8 (UniProt Q8NFY9)
inactive: alvocidib -0.028 | Tubastatin A -0.046 | [1] 0.002 | defactinib -0.007 | [2] 0.02 | encorafenib 0.03 | [3] 0.005 | alisertib -0.028 | [4] 0.01 | gefitinib -0.001

KAT7 (UniProt O95251)
inactive: alvocidib -0.048 | Tubastatin A -0.002 | [1] -0.106 | defactinib 0.008 | [2] -0.079 | encorafenib -0.056 | [3] 0.011 | alisertib 0.081 | [4] 0.073 | gefitinib 0.094

ISOC1 (UniProt Q96CN7)
inactive: alvocidib 0.005 | Tubastatin A 0.074 | [1] 0.02 | defactinib 0.013 | [2] 0.03 | encorafenib 0.017 | [3] -0.009 | alisertib 0.033 | [4] 0.019 | gefitinib -0.038

KCMF1 (UniProt Q9P0J7)
inactive: alvocidib -0.089 | Tubastatin A -0.012 | [1] -0.006 | defactinib 0.004 | [2] 0.094 | encorafenib -0.026 | [3] 0.046 | alisertib -0.013 | [4] -0.002 | gefitinib 0.009

KCTD5 (UniProt Q9NXV2)
inactive: alvocidib -0.073 | Tubastatin A -0.001 | [1] 0.061 | defactinib -0.001 | [2] 0.04 | encorafenib 0.019 | [3] -0.041 | alisertib -0.043 | [4] 0.157 | gefitinib -0.11

JUND (UniProt P17535)
inactive: alvocidib -0.053 | Tubastatin A -0.02 | [1] 0.015 | defactinib 0.064 | [2] 0.016 | encorafenib 0.028 | [3] -0.067 | alisertib 0.011 | [4] -0.058 | gefitinib -0.011

Six successive records from above, quoted:
ITM2A (UniProt O43736)
inactive: alvocidib 0.033 | Tubastatin A 0.084 | [1] 0.005 | defactinib 0.017 | [2] -0.052 | encorafenib -0.013 | [3] -0.01 | alisertib 0.131 | [4] -0.004 | gefitinib 0

IRF2BPL (UniProt Q9H1B7)
inactive: alvocidib -0.076 | Tubastatin A -0.047 | [1] 0.01 | defactinib -0.007 | [2] 0.048 | encorafenib -0.017 | [3] -0.06 | alisertib -0.031 | [4] -0.013 | gefitinib -0.05

KBTBD8 (UniProt Q8NFY9)
inactive: alvocidib -0.028 | Tubastatin A -0.046 | [1] 0.002 | defactinib -0.007 | [2] 0.02 | encorafenib 0.03 | [3] 0.005 | alisertib -0.028 | [4] 0.01 | gefitinib -0.001

KAT7 (UniProt O95251)
inactive: alvocidib -0.048 | Tubastatin A -0.002 | [1] -0.106 | defactinib 0.008 | [2] -0.079 | encorafenib -0.056 | [3] 0.011 | alisertib 0.081 | [4] 0.073 | gefitinib 0.094

ISOC1 (UniProt Q96CN7)
inactive: alvocidib 0.005 | Tubastatin A 0.074 | [1] 0.02 | defactinib 0.013 | [2] 0.03 | encorafenib 0.017 | [3] -0.009 | alisertib 0.033 | [4] 0.019 | gefitinib -0.038

KCMF1 (UniProt Q9P0J7)
inactive: alvocidib -0.089 | Tubastatin A -0.012 | [1] -0.006 | defactinib 0.004 | [2] 0.094 | encorafenib -0.026 | [3] 0.046 | alisertib -0.013 | [4] -0.002 | gefitinib 0.009

Following part:

KDM1A (UniProt O60341)
inactive: alvocidib -0.034 | Tubastatin A -0.067 | [1] -0.023 | defactinib -0.003 | [2] 0.013 | encorafenib 0.003 | [3] 0.095 | alisertib 0.012 | [4] 0.001 | gefitinib 0.006

IPO4 isoform 2 (UniProt Q8TEX9)
inactive: alvocidib -0.019 | Tubastatin A -0.009 | [1] 0.014 | defactinib -0.009 | [2] 0.007 | encorafenib -0.014 | [3] -0.042 | alisertib -0.007 | [4] -0.002 | gefitinib 0.014

JMJD4 (UniProt Q9H9V9)
inactive: alvocidib -0.067 | Tubastatin A -0.08 | [1] 0.095 | defactinib 0.143 | [2] 0.107 | encorafenib 0.005 | [3] 0.051 | alisertib 0.048 | [4] 0.042 | gefitinib -0.08

JPT2 isoform 3 (UniProt Q9H910)
inactive: alvocidib -0.026 | Tubastatin A 0.044 | [1] -0.021 | defactinib 0.008 | [2] 0.035 | encorafenib -0.021 | [3] 0.003 | alisertib -0.017 | [4] 0.011 | gefitinib 0.01

ITGB3BP isoform 5 (UniProt Q13352)
inactive: alvocidib -0.084 | Tubastatin A -0.081

ISYNA1 (UniProt Q9NPH2)
inactive: alvocidib -0.039 | Tubastatin A 0.032 | [1] -0.019 | defactinib -0.017 | [2] -0.021 | encorafenib 0.016 | [3] -0.027 | alisertib -0.038 | [4] 0.027 | gefitinib 0.033

KCTD10 (UniProt Q9H3F6)
inactive: alvocidib 0.065 | Tubastatin A -0.008 | [1] -0.122 | defactinib -0.096 | [2] -0.042 | encorafenib -0.008 | [3] 0.103 | alisertib -0.031 | [4] 0.09 | gefitinib -0.035

ISCU (UniProt Q9H1K1)
inactive: alvocidib 0.019 | Tubastatin A 0.04 | [1] -0.021 | defactinib 0.012 | [2] -0.009 | encorafenib -0.06 | [3] -0.082 | alisertib -0.036 | [4] -0.017 | gefitinib -0.018

IPO5 (UniProt H0Y3V4)
inactive: alvocidib -0.013 | Tubastatin A -0.078 | [1] -0.049 | defactinib 0.127 | [2] -0.056 | encorafenib 0.053 | [3] -0.183 | alisertib 0.039 | [4] -0.368 | gefitinib 0.18

KDM3B (UniProt Q7LBC6)
inactive: alvocidib -0.023 | Tubastatin A -0.036 | [1] 0.006 | defactinib 0.024 | [2] 0.031 | encorafenib 0.052 | [3] -0.015 | alisertib 0.02 | [4] 0.008 | gefitinib -0.006

INTS14 (UniProt Q96SY0)
inactive: alvocidib -0.001 | Tubastatin A -0.066 | [1] 0.032 | defactinib 0.025 | [2] 0.02 | encorafenib 0.006 | [3] -0.1 | alisertib -0.018 | [4] 0.015 | gefitinib -0.003

ITSN1 isoform 8 (UniProt Q15811)
inactive: alvocidib 0.019 | Tubastatin A 0.006 | [1] -0.027 | defactinib 0.01 | [2] 0.071 | encorafenib -0.003 | [3] 0.001 | alisertib -0.045 | [4] 0.032 | gefitinib -0.026

IPO7 (UniProt O95373)
inactive: alvocidib -0.035 | Tubastatin A 0.05 | [1] 0.018 | defactinib -0.007 | [2] 0.022 | encorafenib -0.022 | [3] 0.043 | alisertib -0.001 | [4] 0.019 | gefitinib -0.008

KCTD9 (UniProt Q7L273)
inactive: alvocidib 0.011 | Tubastatin A 0.084 | [1] 0.061 | defactinib 0.026 | [2] 0.008 | encorafenib 0.021 | [3] -0.219 | alisertib -0.016 | [4] -0.003 | gefitinib -0.042

IST1 (UniProt P53990)
inactive: alvocidib 0.027 | Tubastatin A 0.041 | [1] 0.012 | defactinib -0.009 | [2] -0.013 | encorafenib -0.002 | [3] 0 | alisertib 0.033 | [4] 0.001 | gefitinib 0.044

INTS3 (UniProt Q68E01)
inactive: alvocidib -0.003 | Tubastatin A 0.012 | [1] 0.003 | defactinib 0.012 | [2] -0.002 | encorafenib -0.027 | [3] 0.072 | alisertib -0.031 | [4] 0.005 | gefitinib 0.047

KBTBD4 isoform 2 (UniProt Q9NVX7)
inactive: alvocidib -0.064 | Tubastatin A -0.048 | [1] -0.016 | defactinib 0.024 | [2] 0.193 | encorafenib 0.048 | [3] -0.08 | alisertib -0.098 | [4] -0.046 | gefitinib 0.121

IPO5 isoform 3 (UniProt O00410)
inactive: alvocidib 0.014 | Tubastatin A -0.001 | [1] -0.021 | defactinib -0.009 | [2] 0.01 | encorafenib -0.007 | [3] -0.03 | alisertib 0.018 | [4] 0.009 | gefitinib -0.002

ITIH4 (UniProt Q14624)
inactive: alvocidib 0.028 | Tubastatin A 0.1 | [1] -0.024 | defactinib 0.057 | [2] 0.204 | encorafenib 0.004 | [3] -0.023

JMJD6 isoform 3 (UniProt Q6NYC1)
inactive: alvocidib 0.032 | Tubastatin A -0.048 | [1] -0.015 | defactinib 0.07 | [2] 0.008 | encorafenib 0.012 | [3] -0.033 | alisertib 0.019 | [4] -0.007 | gefitinib 0.023

ITSN2 (UniProt Q9NZM3)
inactive: alvocidib 0.017 | Tubastatin A -0.06 | [1] -0.029 | defactinib -0.016 | [2] 0.006 | encorafenib -0.021 | [3] 0.062 | alisertib 0.003 | [4] 0.056 | gefitinib -0.001

KATNB1 (UniProt Q9BVA0)
inactive: alvocidib -0.039 | Tubastatin A 0 | [1] -0.001 | defactinib -0.01 | [2] -0.056 | encorafenib 0.002 | [3] 0.032 | alisertib -0.017 | [4] -0.051 | gefitinib -0.074

KALRN (UniProt O60229)
inactive: alvocidib -0.109

IPO11 isoform 2 (UniProt Q9UI26)
inactive: alvocidib 0.038 | Tubastatin A -0.02 | [1] 0.012 | defactinib 0.005 | [2] 0.009 | encorafenib -0.009 | [3] 0.045 | alisertib -0.012 | [4] 0.006 | gefitinib -0.001

Source: the supplement of paper PMC10849652
